In patent publication US10736877B2, “Tryptamine-based ship inhibitors for the treatment of cancer” (THE RESEARCH FOUNDATION FOR THE STATE UNIVERSITY OF NEW YORK, priority 2015, dated 2020):
At least one structure is not confirmed: it was looked up by name or label, or the drawing left a doubt.

Experiments:
[1] = system: PKB, pS6 and ERK phosphorylation in HCT116 cells; test: Western blotting of signaling, HCT116 cells; format: cell-based, human; conditions: HCT116, serum starved, K149 10 μM 1 h, LY2940002 20 μM 1 h, EGF 10 ng/mL 15 minutes
Experimental: (§1) Western blotting. HCT116 and CACO-2 cells were serum starved by incubating for 2 h, after which cells were stimulated for 15 minutes with EGF (10 ng/mL), or stimulated for 1 h with LY2940002 (20 μM) or SHIP2 inhibitor K149 (10 μM). Subsequently, cells were washed with PBS and lysed on ice in 300 μL 2× concentrated Laemmli buffer (100 mM Tris-HCl (pH 6.8), 200 mM dithiothreitol, 4% SDS, 0.1% bromophenol blue, 20% glycerol, and 2% DTT) and boiled for 5 minutes at 95° C. Cell extracts were resolved by SDS-PAGE and transferred to polyvinylidene difluoride membranes (Merck chemicals BV, Amsterdam, the Netherlands). Membranes were blocked in 50% odyssey blocking buffer (LI-COR Biosciences, Lincoln, Nebr.) in PBS/0.05% Tween-20 and incubated overnight at 4° C. with primary antibody. After washing in PBS-T, membranes were incubated with IRDye® antibodies (LI-COR Biosciences, Lincoln, Nebr.) for 1 h. Detection was performed using Odyssey reader and analyzed using manufacturers software.

[2] = system: PKB, pS6 and ERK phosphorylation in CACO-2 cells; test: Western blotting of signaling, CACO-2 cells; format: cell-based, human; conditions: CACO-2, serum starved, K149 10 μM 1 h, LY2940002 20 μM 1 h, EGF 10 ng/mL 15 minutes
Experimental: as §1

O=c1cc(N2CCOCC2)oc2c(-c3ccccc3)cccc12 [LY294002]
not affected by either inhibitor: ERK phosphorylation [1] | ERK phosphorylation [2]
reduces: PKB phosphorylation ([1]; listed as LY2940002) | pS6 phosphorylation ([1]; listed as LY2940002) | PKB phosphorylation ([2]; listed as LY2940002) | pS6 phosphorylation ([2]; listed as LY2940002)
affected by neither inhibitor: ERK phosphorylation ([1]; listed as LY2940002) | ERK phosphorylation ([2]; listed as LY2940002)
inhibits: PKB phosphorylation [1] | pS6 phosphorylation [1] | PKB phosphorylation [2] | pS6 phosphorylation [2]
